Results are given in words; binding and its absence hold for the method and conditions named. Binding seen in cells or lysates may run through a third protein. Binding can be weak; no strength is given.

The values that follow come from publication PMC3694841.

The assay has as its target T1, Slit (pUAST-slit) (Drosophila melanogaster) (UniProt P24014).
T1 sequence: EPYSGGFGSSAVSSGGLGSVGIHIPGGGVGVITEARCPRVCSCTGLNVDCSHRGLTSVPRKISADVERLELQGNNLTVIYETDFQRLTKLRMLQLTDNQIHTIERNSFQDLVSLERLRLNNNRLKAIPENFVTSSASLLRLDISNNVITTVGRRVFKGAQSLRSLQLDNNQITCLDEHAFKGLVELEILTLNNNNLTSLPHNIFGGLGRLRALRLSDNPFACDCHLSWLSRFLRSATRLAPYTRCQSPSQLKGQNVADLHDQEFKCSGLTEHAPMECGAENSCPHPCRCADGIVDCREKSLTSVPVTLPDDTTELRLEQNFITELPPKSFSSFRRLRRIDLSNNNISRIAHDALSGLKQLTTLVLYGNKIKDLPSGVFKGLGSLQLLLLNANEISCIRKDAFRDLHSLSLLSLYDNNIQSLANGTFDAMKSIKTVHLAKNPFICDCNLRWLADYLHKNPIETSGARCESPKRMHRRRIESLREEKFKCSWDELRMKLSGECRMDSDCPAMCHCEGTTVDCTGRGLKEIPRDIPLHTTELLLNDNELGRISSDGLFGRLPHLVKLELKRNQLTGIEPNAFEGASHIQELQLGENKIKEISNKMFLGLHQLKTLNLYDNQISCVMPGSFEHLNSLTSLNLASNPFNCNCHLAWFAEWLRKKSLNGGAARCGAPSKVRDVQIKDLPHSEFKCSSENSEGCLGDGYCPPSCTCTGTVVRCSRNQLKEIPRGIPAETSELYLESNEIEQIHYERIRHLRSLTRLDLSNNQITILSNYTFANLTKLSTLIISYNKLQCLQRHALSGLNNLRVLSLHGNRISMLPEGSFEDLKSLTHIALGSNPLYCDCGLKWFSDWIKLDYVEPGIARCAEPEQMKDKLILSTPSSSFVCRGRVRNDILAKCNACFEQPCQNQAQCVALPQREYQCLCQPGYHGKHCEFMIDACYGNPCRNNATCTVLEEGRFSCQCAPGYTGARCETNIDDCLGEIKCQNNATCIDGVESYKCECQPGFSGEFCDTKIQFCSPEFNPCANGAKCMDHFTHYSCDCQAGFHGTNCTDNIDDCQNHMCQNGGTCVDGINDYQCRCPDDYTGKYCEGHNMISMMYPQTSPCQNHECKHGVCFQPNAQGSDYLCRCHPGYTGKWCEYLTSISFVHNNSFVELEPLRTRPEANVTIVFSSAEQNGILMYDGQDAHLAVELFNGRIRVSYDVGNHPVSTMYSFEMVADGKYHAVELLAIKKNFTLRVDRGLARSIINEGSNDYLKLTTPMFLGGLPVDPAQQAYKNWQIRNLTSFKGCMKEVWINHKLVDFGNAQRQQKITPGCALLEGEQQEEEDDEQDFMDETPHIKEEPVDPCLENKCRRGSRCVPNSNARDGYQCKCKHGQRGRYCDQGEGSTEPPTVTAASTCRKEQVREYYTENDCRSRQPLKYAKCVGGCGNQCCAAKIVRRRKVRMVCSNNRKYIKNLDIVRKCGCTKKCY
The experiment in a line: co-IP; soluble lysate (0.5% NP40 in PBS) of S2 (SR+) cells co-transfected with Robo, Slit and Mp; protein A/G beads pre-coupled with mouse anti Slit antibody (control: normal mouse serum), overnight at 4°C; Western blot with anti Slit, Mp and Robo. In general terms: A western blot detects proteins with antibodies after separation by electrophoresis.

As to “Robo-HA (pUAST-robo-HA) (Drosophila melanogaster) (receptor)”, the binding result is “binds”.

For the substance “Multiplexin (Mp), cDNA 3hnc1 (Drosophila melanogaster)”, the binding entry was “binds”.
